Laboratory results reported in PubChem BioAssay AID590 (National Center for Advancing Translational Sciences (NCATS), 2007).
The campaign covered roughly 59,000 compounds. About 6,500 (11%) were called active. This list was built around the results that the source calls inconclusive (neither active nor inactive); the mix of calls is not that of the screen. Cut-off read from the data, not from the text of the source: active = max dye-equivalent concentration above about 10 nM; inconclusive = mostly about 1.1 nM to 9.6 nM; inactive = weaker than that.

Experiment: qHTS Assay for Spectroscopic Profiling in A350 Spectral Region
Settings: Compound autofluorescence, 340/450 nm, Alexa 350 dye-equivalents; stronger effect = higher value
In the case of `COc1ccc(CCn2c(-n3nc(C)cc3C)nc3c2c(=O)[nH]c(=O)n3C)cc1`, the max dye-equivalent concentration is reported as inconclusive: 1.1 nM. With `Cn1nnc2c(N3CCCCC3)nccc21` the max dye-equivalent concentration was inconclusive: 3.5 nM. For `CC(C)(C)C1CCC2(CC1)C(C#N)=C(SCC(=O)Nc1ccccc1)NC(=O)C2C#N` (centres undefined), the max dye-equivalent concentration was active: 390 nM. In the case of `COc1cccc(N2C(=O)CC(N3CCN(S(=O)(=O)c4ccccc4)CC3)C2=O)c1` (centres undefined), the max dye-equivalent concentration is reported as “inactive”. With `CCOc1ccc(-n2c(-c3ccco3)n[nH]c2=S)cc1` the max dye-equivalent concentration was inconclusive: 1.5 nM. For `CCN(CC)C(=O)c1cc2c(=O)n3cccc(C)c3nc2n1C`, the max dye-equivalent concentration was active: 700 nM. For `CCOC(=O)CSc1nnc(CNc2cccc(Cl)c2)n1-c1ccccc1`, the max dye-equivalent concentration was inconclusive: 1.8 nM. For `O=C(O)CC(CP(=O)(c1ccccc1)c1ccccc1)C(=O)O` (centres undefined), the max dye-equivalent concentration was “inactive”. In the case of `COC(=O)c1ccc(NC(=O)CSc2nnc(-c3ccncc3)n2C)cc1`, the max dye-equivalent concentration is reported as “inactive”. For `COc1cccc(OC)c1OCCCc1c(C)n[nH]c1C`, the max dye-equivalent concentration was inconclusive: 8.7 nM. For `FC(F)(F)c1ccccc1-c1nc(-n2ccnc2)c2ccccc2n1`, the max dye-equivalent concentration was “inactive”. For `CC1=C(C)CC(C(=O)c2ccccc2)C(C(=O)O)C1` (centres undefined), the max dye-equivalent concentration was inconclusive: 1.2 nM. With `CCCCCCc1c(O)c2ccccc2[nH]c1=O` the max dye-equivalent concentration was “inactive”. In the case of `COCc1cc(C)nc(SCC(=O)Nc2ccc(C)c(C)c2)c1C#N`, the max dye-equivalent concentration is reported as inconclusive: 2.5 nM. With `COc1cc(-c2noc(CCCC(=O)NCc3ccco3)n2)cc(OC)c1OC` the max dye-equivalent concentration was active: 13 nM. With `Cc1nc2[nH]onc2c2nccc(=O)c12` the max dye-equivalent concentration was inconclusive: 1.4 nM. In the case of `O=C(c1cc2ccccc2oc1=O)N(Cc1ccco1)CC1CCCO1` (centres undefined), the max dye-equivalent concentration is reported as inconclusive: 2.3 nM. For `COc1ccccc1N(CN1C(=O)c2ccccc2C1=O)C(=O)c1cccnc1`, the max dye-equivalent concentration was “inactive”. In the case of `O=C(Nc1ccccc1C(=O)N1CCCC1)C1CCN(c2ncccn2)CC1`, the max dye-equivalent concentration is reported as inconclusive: 3.6 nM. For `COC(=O)c1ccc(COc2cccc(OC)c2)o1`, the max dye-equivalent concentration was inconclusive: 4.6 nM. In the case of `Cc1nc2oc(C(=O)c3ccccc3)c(N)c2c2c1COC(C)(C)C2`, the max dye-equivalent concentration is reported as inconclusive: 4.6 nM. With `CC(C)CN(CC(C)C)c1nc(N)c(C#N)c(CC#N)c1C#N` the max dye-equivalent concentration was inconclusive: 3.7 nM. For `CC1(C(=O)O)Sc2[nH]c(=O)sc2C2c3ccccc3OC(=O)C21` (centres undefined), the max dye-equivalent concentration was inconclusive: 2.4 nM. In the case of `C(=N\n1cnnc1)/c1cccc2ccccc12`, the max dye-equivalent concentration is reported as active: 19 nM. With `O=C(NCC(c1cccs1)N1CCOCC1)c1ccc(Cl)s1` (centres undefined) the max dye-equivalent concentration was inconclusive: 1.5 nM. For `Cc1ccc(Cn2c(=O)cc(C(=O)O)c3ccccc32)cc1`, the max dye-equivalent concentration was inconclusive: 6.6 nM. For `CCOC(=O)CC1=C(C(=O)OCC)C(c2cc(OC)c(OC)cc2OC)C(C#N)=C(N)O1` (centres undefined), the max dye-equivalent concentration was inconclusive: 1.2 nM. In the case of `O=C(CSc1ccccc1)NCCCN1CCOCC1`, the max dye-equivalent concentration is reported as inconclusive: 2.5 nM. With `Cc1cccc2cc(C#N)c(SCCN3CCCCC3)nc12` the max dye-equivalent concentration was inconclusive: 1.9 nM. For `Clc1ccc(OCc2nc(-c3ccccn3)n[nH]2)cc1`, the max dye-equivalent concentration was inconclusive: 1.8 nM. With `O=S(=O)(/N=C/N1CCOCC1)c1ccc(Cl)cc1` the max dye-equivalent concentration was inconclusive: 1.4 nM. With `CCOC(=O)c1snc(-c2ccc(F)cc2)c1N` the max dye-equivalent concentration was inconclusive: 9.7 nM. In the case of `COc1ccc(S(=O)(=O)N2CCN(S(=O)(=O)c3ccc(C(F)(F)F)cc3)CC2)cc1C`, the max dye-equivalent concentration is reported as inconclusive: 1.1 nM. In the case of `O=C(NCCN1CCOCC1)c1ccc2c(c1)N(Cc1ccccc1F)C(=O)CS2`, the max dye-equivalent concentration is reported as inconclusive: 1.8 nM. With `O=C(NCCc1ccccc1)C1CC(=O)N(C2CCCCCC2)C1` (centres undefined) the max dye-equivalent concentration was “inactive”. With `CCc1ccc(-c2cn3nc(C)c(C)nc3n2)cc1` the max dye-equivalent concentration was active: 1900 nM. With `CC(C)OC(=O)CSc1ncnc2c1cnn2Cc1ccccc1` the max dye-equivalent concentration was inconclusive: 1.8 nM. In the case of `Cc1ccc(-c2nn3c(C)nnc3s2)cc1N`, the max dye-equivalent concentration is reported as active: 32 nM. With `CC(=O)S[C@@H]1CC2=CC(=O)CC[C@@]2(C)[C@H]2CC[C@]3(C)[C@H](CC[C@@]34CCC(=O)O4)[C@H]12` the max dye-equivalent concentration was “inactive”. For `CC(C)C1Cc2[nH]c(=O)c(C(=O)O)cc2CO1` (centres undefined), the max dye-equivalent concentration was inconclusive: 1.2 nM. With `CCCc1cc(=O)[nH]c(/N=C(/NC(=O)c2ccccc2)Nc2ccc3c(c2)OCCO3)n1` the max dye-equivalent concentration was inconclusive: 1.7 nM. With `COc1ccc2c3c1O[C@H]1C[C@H](O)C=C[C@@]31CCN(C)C2` the max dye-equivalent concentration was inconclusive: 9.2 nM. With `COc1ccc(C2N=C(Nc3ccc(C)cc3)Nc3nc(C)cc(=O)n32)cc1` (centres undefined) the max dye-equivalent concentration was “inactive”. In the case of `COCCNCC(=O)NC12CC3CC(CC(C3)C1)C2`, the max dye-equivalent concentration is reported as inconclusive: 2.6 nM. For `COc1ccc2cc(C(c3nnnn3C3CCCC3)N3CCc4ccccc4C3)c(=O)[nH]c2c1` (centres undefined), the max dye-equivalent concentration was inconclusive: 5.2 nM. For `CCOc1cc(S(=O)(=O)NCc2ccccc2)ccc1F`, the max dye-equivalent concentration was inconclusive: 3.3 nM. In the case of `CC(=C/C(=O)O)/C=C/c1cccs1`, the max dye-equivalent concentration is reported as inconclusive: 1.4 nM. With `O=c1[nH]c2cccnc2n1Cc1ccco1` the max dye-equivalent concentration was inconclusive: 5.2 nM. For `Cc1cc(C)n2nc(SCc3cc(=O)n4ccccc4n3)nc2n1`, the max dye-equivalent concentration was inconclusive: 4.7 nM. With `COc1cc(-c2cc(=O)c3ccccc3o2)ccc1O` the max dye-equivalent concentration was inconclusive: 1.2 nM. For `CC(=O)N1CCC2(CCCN(c3ncccn3)C2)CC1`, the max dye-equivalent concentration was “inactive”. In the case of `COCCCNC(CC(=O)Nc1ccccc1C(=O)OC)C(=O)O` (centres undefined), the max dye-equivalent concentration is reported as “inactive”. With `O=C(NCC1CCCO1)c1cc(-c2ccccc2)on1` (centres undefined) the max dye-equivalent concentration was “inactive”. For `COc1ccc(N2CCN(C(=O)CC(NC(N)=O)c3cccc(Oc4ccccc4)c3)CC2)cc1` (centres undefined), the max dye-equivalent concentration was inconclusive: 1.3 nM. In the case of `CCN=C1SC(CC(=O)NC(N)=O)C(=O)N1CC` (centres undefined), the max dye-equivalent concentration is reported as inconclusive: 3.5 nM. With `COc1ccc(-n2c(=O)c(C)nc3cnc(N4CCNCC4)nc32)cc1` the max dye-equivalent concentration was inconclusive: 2.1 nM. For `CCCCc1nc2ccccc2c(=O)n1NC(=O)c1c(O)c2cccc3c2n(c1=O)CC3`, the max dye-equivalent concentration was inconclusive: 5.2 nM. For `N#CC(C(=O)c1ccc(S(=O)(=O)N2CCCCCC2)cc1)c1nc2ccccc2[nH]1` (centres undefined), the max dye-equivalent concentration was active: 52 nM. For `COC(=O)C1=C(NC(=O)c2ccc(C)c(C)c2)CCS1`, the max dye-equivalent concentration was active: 180 nM. In the case of `Cc1cc(C)n(-c2nc(C)nc3c2cnn3-c2ccccc2)n1`, the max dye-equivalent concentration is reported as inconclusive: 1.3 nM. For `COCCN1CSC(=S)N(Cc2ccco2)C1`, the max dye-equivalent concentration was inconclusive: 1.1 nM. In the case of `CC(=O)OCCNC(=O)c1cc2ccccc2oc1=O`, the max dye-equivalent concentration is reported as active: 17 nM. For `O=C(Nc1ccc2oc(-c3ccccc3)nc2c1)c1ccc2c(c1)OCCO2`, the max dye-equivalent concentration was inconclusive: 8 nM. With `CCCCOC(=O)C1[C@H]2C(=O)N(c3ccccc3CC)C[C@]23C=C[C@H]1O3` (some centres undefined) the max dye-equivalent concentration was inconclusive: 2.5 nM. For `CCOC(=O)Cc1nnc(NC(=O)CC)s1`, the max dye-equivalent concentration was inconclusive: 1.3 nM. For `CC(=O)c1ccc(N2CCN(C(=O)c3ccc4c(=O)n(-c5ccccc5)c(=O)[nH]c4c3)CC2)cc1`, the max dye-equivalent concentration was inconclusive: 2.5 nM. For `COc1cc(-c2nnc(-c3cccs3)o2)cc(OC)c1OC`, the max dye-equivalent concentration was inconclusive: 3.6 nM. For `Cc1ccc(-c2nc3cc(N)ccc3o2)c(C)c1`, the max dye-equivalent concentration was “inactive”. With `COc1cccc(Cn2c(=O)c(C)nc3cnc(Oc4cccc(Cl)c4)nc32)c1` the max dye-equivalent concentration was “inactive”. With `O=C(NCc1ccccc1)NC1(C(=O)N2CCCC2)CCCCC1` the max dye-equivalent concentration was inconclusive: 2.9 nM. For `CCC(=O)c1cccc2c1N=CC1=C(CC(C)(C)CC1=O)N2`, the max dye-equivalent concentration was inconclusive: 2 nM. In the case of `CO[C@H]1C[C@@H](O[C@@H]2[C@H](C)[C@H](O[C@@H]3O[C@@H](C)C[C@@H](N(C)C)[C@@H]3O)[C@H](C)C[C@]3(CO3)C(=O)[C@H](C)[C@H](O)[C@H](C)[C@H](C)OC(=O)[C@@H]2C)O[C@@H](C)[C@H]1O`, the max dye-equivalent concentration is reported as “inactive”. In the case of `O=C(Oc1ccc(Cl)c2cccnc12)N1CCCCC1`, the max dye-equivalent concentration is reported as “inactive”. In the case of `CC(=O)Nc1ccc(S(=O)(=O)N2CCC(c3nc4ccc(C)cc4[nH]3)CC2)cc1`, the max dye-equivalent concentration is reported as active: 7300 nM. In the case of `CCOC(=O)C1=C(C)NC(C)=C(C(=O)OCC)C1C(=O)OCC(=O)N1CCc2ccccc21`, the max dye-equivalent concentration is reported as active: 74 nM. For `CCOc1ccccc1Nc1nc(N)nc(CN(C)C2CCCCC2)n1`, the max dye-equivalent concentration was inconclusive: 1.3 nM. With `COC(=O)c1cc(COc2ccc3ccc(=O)oc3c2)c(C)o1` the max dye-equivalent concentration was active: 19 nM. In the case of `CCCCOC(=O)C1[C@H]2C(=O)N(Cc3cccs3)C[C@]23C=C[C@H]1O3` (some centres undefined), the max dye-equivalent concentration is reported as inconclusive: 3.8 nM. In the case of `Cc1cc(C(C)(C)C)cc(C)c1CC1=NCCN1`, the max dye-equivalent concentration is reported as inconclusive: 1.8 nM. With `CCN(CCCCOC(=O)c1ccc(OC)c(OC)c1)C(C)Cc1ccc(OC)cc1` (centres undefined) the max dye-equivalent concentration was inconclusive: 1.6 nM. With `Cc1cccnc1NC(=O)CCCN1C(=O)c2ccccc2C1=O` the max dye-equivalent concentration was “inactive”. With `CCc1cc2c(NCCO)ncnc2s1` the max dye-equivalent concentration was active: 20 nM. With `CC(C)[C@H](NC(=O)NCc1ccc(Cl)cc1)C(=O)O` the max dye-equivalent concentration was inconclusive: 6.6 nM. For `Cc1ccc(CCNC(=O)C2CCCN(S(=O)(=O)c3cccc4nsnc34)C2)cc1` (centres undefined), the max dye-equivalent concentration was inconclusive: 8.1 nM. For `Cc1cc(NCCCN2CCOCC2)n2nc(C)c(-c3ccc(F)cc3)c2n1`, the max dye-equivalent concentration was inconclusive: 3.8 nM. For `CCC[C@H]1C[C@H](C(=O)N[C@@H]([C@H]2O[C@@H](SC)[C@@H](O)[C@@H](O)[C@@H]2O)[C@H](C)Cl)N(C)C1`, the max dye-equivalent concentration was inconclusive: 5.2 nM. In the case of `O=C(O)c1ccc(CNC(=O)c2ccc(Br)o2)cc1`, the max dye-equivalent concentration is reported as inconclusive: 2.7 nM. In the case of `COc1ccc(Oc2ncc3ncc(=O)n(Cc4cccs4)c3n2)cc1`, the max dye-equivalent concentration is reported as “inactive”. With `CC(C)(C)C(=O)Cn1c(NCCCO)nc2ccccc21` the max dye-equivalent concentration was “inactive”.
